These are yes or no findings as the source states them, for the method shown. Binding seen in cells or lysates may run through a third protein. Some results given as binding are weak or reduced against the parent protein; the word gives no strength. Sequences can lack the tags named with a protein.
Columns and labels:
[1] = molecular target: SFB-WWP2 (WWP2 triple tagged with S-protein/Flag/SBP) (UniProt O00308); assay: co-IP; co-transfected cells (293T in Fig. 6a); NETN lysate; SFB-tagged protein pulled down with streptavidin (SBP) beads, immunoblot with anti-Myc
SFB-tagged ΔNp73 = molecular target: T1, SFB-tagged ΔNp73 (UniProt O15350); assay: as above
T1 sequence: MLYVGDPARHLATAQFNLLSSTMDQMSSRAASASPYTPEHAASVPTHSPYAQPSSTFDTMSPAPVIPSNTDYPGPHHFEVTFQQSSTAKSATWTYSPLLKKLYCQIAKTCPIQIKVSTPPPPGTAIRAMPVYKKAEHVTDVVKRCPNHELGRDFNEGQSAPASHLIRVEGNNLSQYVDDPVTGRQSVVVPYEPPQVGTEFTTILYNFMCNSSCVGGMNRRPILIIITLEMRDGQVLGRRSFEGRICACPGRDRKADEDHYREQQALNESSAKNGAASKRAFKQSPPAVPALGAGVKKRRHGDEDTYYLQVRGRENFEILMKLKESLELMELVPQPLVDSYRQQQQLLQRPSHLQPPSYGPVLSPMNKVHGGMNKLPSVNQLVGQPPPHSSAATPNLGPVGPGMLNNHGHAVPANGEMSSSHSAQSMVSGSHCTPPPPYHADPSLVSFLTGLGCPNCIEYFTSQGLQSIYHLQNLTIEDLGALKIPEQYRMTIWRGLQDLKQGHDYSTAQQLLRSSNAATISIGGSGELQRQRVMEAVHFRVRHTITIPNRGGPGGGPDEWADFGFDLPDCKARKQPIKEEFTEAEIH

Sequences of proteins named here, by UniProt entry; tags and fusion partners are left off.
UniProt O00308: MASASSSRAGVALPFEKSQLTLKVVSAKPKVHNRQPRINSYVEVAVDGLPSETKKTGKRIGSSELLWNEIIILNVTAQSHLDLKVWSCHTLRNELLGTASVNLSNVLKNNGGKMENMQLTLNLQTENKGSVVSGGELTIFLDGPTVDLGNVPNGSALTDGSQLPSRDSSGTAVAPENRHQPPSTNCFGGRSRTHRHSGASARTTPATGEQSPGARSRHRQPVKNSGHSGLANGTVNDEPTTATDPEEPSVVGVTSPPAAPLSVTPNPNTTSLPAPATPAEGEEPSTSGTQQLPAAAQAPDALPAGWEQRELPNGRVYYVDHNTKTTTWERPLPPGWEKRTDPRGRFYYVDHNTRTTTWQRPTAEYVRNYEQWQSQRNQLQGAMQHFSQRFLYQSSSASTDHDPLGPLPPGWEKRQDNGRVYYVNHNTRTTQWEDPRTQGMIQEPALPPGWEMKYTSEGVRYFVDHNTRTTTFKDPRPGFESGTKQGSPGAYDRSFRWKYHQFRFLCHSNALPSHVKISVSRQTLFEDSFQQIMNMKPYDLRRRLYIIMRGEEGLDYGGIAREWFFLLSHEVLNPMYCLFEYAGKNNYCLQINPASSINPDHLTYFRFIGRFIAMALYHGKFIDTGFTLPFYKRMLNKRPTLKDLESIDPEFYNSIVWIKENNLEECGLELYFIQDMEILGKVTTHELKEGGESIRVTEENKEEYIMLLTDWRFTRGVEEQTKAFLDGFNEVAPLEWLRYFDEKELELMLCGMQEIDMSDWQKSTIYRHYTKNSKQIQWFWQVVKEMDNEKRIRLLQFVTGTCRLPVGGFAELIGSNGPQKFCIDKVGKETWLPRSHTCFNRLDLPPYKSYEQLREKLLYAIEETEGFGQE

B1: Myc-PPM1G (enzyme, UniProt O15355 1-546)
chain: MGAYLSQPNTVKCSGDGVGAPRLPLPYGFSAMQGWRVSMEDAHNCIPELDSETAMFSVYDGHGGEEVALYCAKYLPDIIKDQKAYKEGKLQKALEDAFLAIDAKLTTEEVIKELAQIAGRPTEDEDEKEKVADEDDVDNEEAALLHEEATMTIEELLTRYGQNCHKGPPHSKSGGGTGEEPGSQGLNGEAGPEDSTRETPSQENGPTAKAYTGFSSNSERGTEAGQVGEPGIPTGEAGPSCSSASDKLPRVAKSKFFEDSEDESDEAEEEEEDSEECSEEEDGYSSEEAENEEDEDDTEEAEEDDEEEEEEMMVPGMEGKEEPGSDSGTTAVVALIRGKQLIVANAGDSRCVVSEAGKALDMSYDHKPEDEVELARIKNAGGKVTMDGRVNGGLNLSRAIGDHFYKRNKNLPPEEQMISALPDIKVLTLTDDHEFMVIACDGIWNVMSSQEVVDFIQSKISQRDENGELRLLSSIVEELLDQCLAPDTSGDGTGCDNMTCIIICFKPRNTAELQPESGKRKLEEVLSTEGAEENGNSDKKKKAKRD
For B1, the binding [1] was “binds”.

B2: Myc-HACE1 (enzyme, UniProt Q8IYU2 1-909)
chain: MERAMEQLNRLTRSLRRARTVELPEDNETAVYTLMPMVMADQHRSVSELLSNSKFDVNYAFGRVKRSLLHIAANCGSVECLVLLLKKGANPNYQDISGCTPLHLAARNGQKKCMSKLLEYSADVNICNNEGLTAIHWLAVNGRTELLHDLVQHVSDVDVEDAMGQTALHVACQNGHKTTVQCLLDSGADINRPNVSGATPLYFACSHGQRDTAQILLLRGAKYLPDKNGVTPLDLCVQGGYGETCEVLIQYHPRLFQTIIQMTQNEDLRENMLRQVLEHLSQQSESQYLKILTSLAEVATTNGHKLLSLSSNYDAQMKSLLRIVRMFCHVFRIGPSSPSNGIDMGYNGNKTPRSQVFKPLELLWHSLDEWLVLIATELMKNKRDSTEITSILLKQKGQDQDAASIPPFEPPGPGSYENLSTGTRESKPDALAGRQEASADCQDVISMTANRLSAVIQAFYMCCSCQMPPGMTSPRFIEFVCKHDEVLKCFVNRNPKIIFDHFHFLLECPELMSRFMHIIKAQPFKDRCEWFYEHLHSGQPDSDMVHRPVNENDILLVHRDSIFRSSCEVVSKANCAKLKQGIAVRFHGEEGMGQGVVREWFDILSNEIVNPDYALFTQSADGTTFQPNSNSYVNPDHLNYFRFAGQILGLALNHRQLVNIYFTRSFYKHILGIPVNYQDVASIDPEYAKNLQWILDNDISDLGLELTFSVETDVFGAMEEVPLKPGGGSILVTQNNKAEYVQLVTELRMTRAIQPQINAFLQGFHMFIPPSLIQLFDEYELELLLSGMPEIDVSDWIKNTEYTSGYEREDPVIQWFWEVVEDITQEERVLLLQFVTGSSRVPHGGFANIMGGSGLQNFTIAAVPYTPNLLPTSSTCINMLKLPEYPSKEILKDRLLVALHCGSYGYTMA
In the case of B2, the binding (SFB-tagged ΔNp73) is reported as “no binding”.

— PMC4187731
